Literature values in PMC9212491 (Antiviral Research, 2022).

Tested on: AP2M1 phosphorylation
Conditions: only at a high concentration; ref Wang et al., 2020; cited from earlier work

CCS(=O)(=O)N1CC(CC#N)(n2cc(-c3ncnc4[nH]ccc34)cn2)C1 [Baricitinib, baricitinib]
concentration at which AP2M1 phosphorylation was inhibited: 10 µM
